Test systems include OR7C2 clone 1292; OR7D2 clone 1405; OR7D4 clone 1298; OR7E24 P242S clone 1314; OR7G1 clone 1295; OR7G2 clone 1475; OR7G3 clone 1297; OR8A1 clone 1503; OR8B12 clone 1731; OR8B4 E22G clone 1227; OR8B8 clone 1226; OR8B8 clone 1504; OR8D1 clone 1142; OR8D2 clone 1179; OR8G1 clone 1395; OR8G5 clone 1323.
Assay in all cases: odorant receptor activation (CRE luciferase / Renilla) (fold of no-odor wells); higher = more activation
What all share (settings): 100 µM

For experiment [1], the system named is OR7G2 V263A/F281V clone 1312.
In experiment [2] the test system is OR8B3 H20R/Q24R/V34I/M114I clone 1727.
The test system of experiment [3] is OR8B4 Y131H/C140F/C178R clone 1440.
In experiment [4] the test system is OR8D4 C120Y/R133K/F200L/L283P/R298K clone 1072.

Where “and” joins values, the source holds several entries; their conditions need not be identical. Identical values can stand only once. Some of the results follow. Each value is one well over the wells without odorant, computed here; the data are noisy.

For seven compounds, odorant receptor activation results are on record in the odorant receptor screen of Mainland et al. (2015).

Turning to `CCCCO` [1-butanol], the odorant receptor activation in the experiment on OR7C2 clone 1292 was found to be 1.06; with OR7D2 clone 1405, 0.705; in the experiment with OR7D4 clone 1298 it was 0.976; in the experiment on OR7E24 P242S clone 1314, 0.715; in the experiment with OR7G1 clone 1295 it was 1.16; in [1], 0.775. For the same compound, the odorant receptor activation with OR7G2 clone 1475 was found to be 1.19; in the experiment on OR7G3 clone 1297, 0.611; with OR8A1 clone 1503 it was 1.08; in the experiment with OR8B12 clone 1731, 0.744; in experiment [2], 0.149; in the experiment with OR8B4 E22G clone 1227, 1.12. Also, the odorant receptor activation in [3] is 0.986; in the experiment on OR8B8 clone 1226 it was 1.15; in the experiment on OR8B8 clone 1504, 1.16; with OR8D1 clone 1142 it was 0.94; with OR8D2 clone 1179, 0.827; in experiment [4] it was 2.3. The results for the odorant receptor activation with OR8G1 clone 1395 and in the experiment on OR8G5 clone 1323 were 1.37 and 1, respectively.

On to `O=C1CCCCCCCCCCCC(=O)OCCO1` [ethylene brassylate], for which the odorant receptor activation in the experiment on OR7C2 clone 1292 was determined as 1.32; in the experiment with OR7D2 clone 1405 it was 1.53; with OR7D4 clone 1298, 1.21; in the experiment with OR7E24 P242S clone 1314 it was 1.46; with OR7G1 clone 1295 it was 1.39; in [1], 1.13. Moreover, the odorant receptor activation with OR7G2 clone 1475 turned out to be 1.15; with OR7G3 clone 1297, 1.25; in the experiment on OR8A1 clone 1503 it was 1.22; in the experiment with OR8B12 clone 1731, 0.978; in experiment [2] it was 0.824; in the experiment on OR8B4 E22G clone 1227 it was 1.79. Moreover, the odorant receptor activation in [3] came out at 2.14; in the experiment on OR8B8 clone 1226, 1.51; with OR8B8 clone 1504, 1.23; in the experiment on OR8D1 clone 1142, 2.36; in the experiment with OR8D2 clone 1179, 1.51; in [4], 1.72. Further, the odorant receptor activation with OR8G1 clone 1395 turned out to be 1.66; in the experiment with OR8G5 clone 1323 it was 1.62.

Regarding `COc1ccccc1O` [guaiacol], the odorant receptor activation is 0.845 and 1.32 in the experiment on OR7C2 clone 1292; 0.718 with OR7D2 clone 1405; 0.982 and 0.918 with OR7D4 clone 1298; 1.05 with OR7E24 P242S clone 1314; 0.978 and 0.876 with OR7G1 clone 1295; 1.22 and 0.875 in [1]. Also, the odorant receptor activation is 0.943 and 1.17 in the experiment with OR7G2 clone 1475; 0.783 and 0.882 in the experiment on OR7G3 clone 1297; 1.01 and 0.992 in the experiment with OR8A1 clone 1503; 0.852 in the experiment with OR8B12 clone 1731; 0.656 in [2]; 0.968 in the experiment on OR8B4 E22G clone 1227. Also, the odorant receptor activation in experiment [3] was 0.809; in the experiment with OR8B8 clone 1226, 0.931; in the experiment with OR8B8 clone 1504, 0.712 and 1.14; with OR8D1 clone 1142, 0.95; in the experiment with OR8D2 clone 1179, 0.915; in [4], 2.78. The odorant receptor activation is 0.6 in the experiment with OR8G1 clone 1395; 0.801 and 1.02 in the experiment with OR8G5 clone 1323.

`CC(C)=CCCC(C)=CC=O` [citral]: the odorant receptor activation came to 0.841 with OR7C2 clone 1292; 0.355 in the experiment on OR7D2 clone 1405; 1.22 in the experiment on OR7D4 clone 1298; 0.784 in the experiment with OR7E24 P242S clone 1314; 1.34 in the experiment with OR7G1 clone 1295; 1.05 in [1]. Also, the odorant receptor activation with OR7G2 clone 1475 came out at 1.23; in the experiment on OR7G3 clone 1297, 1.24; in the experiment with OR8A1 clone 1503, 1.48; in the experiment with OR8B12 clone 1731 it was 1.09; in experiment [2], 0.416; in the experiment with OR8B4 E22G clone 1227 it was 1.12. In addition, the odorant receptor activation worked out at 0.151 in [3]; 0.853 with OR8B8 clone 1226; 0.86 in the experiment with OR8B8 clone 1504; 1.07 in the experiment on OR8D1 clone 1142; 0.996 with OR8D2 clone 1179; 1.13 in experiment [4]. In addition, the odorant receptor activation with OR8G1 clone 1395 worked out at 0.297; in the experiment on OR8G5 clone 1323 it was 1.06.

As for `CCCCCCCCC=O` [nonyl aldehyde], the odorant receptor activation is 0.933 in the experiment with OR7C2 clone 1292; 0.781 in the experiment with OR7D2 clone 1405; 0.943 in the experiment with OR7D4 clone 1298; 0.841 in the experiment on OR7E24 P242S clone 1314; 1.14 with OR7G1 clone 1295; 0.942 in [1]. Moreover, the odorant receptor activation in the experiment with OR7G2 clone 1475 came to 0.997; with OR7G3 clone 1297 it was 0.948; with OR8A1 clone 1503 it was 0.831; with OR8B12 clone 1731, 0.741; in experiment [2], 1; with OR8B4 E22G clone 1227, 1.43. In addition, the odorant receptor activation in experiment [3] stood at 0.947; with OR8B8 clone 1226 it was 1.11; in the experiment with OR8B8 clone 1504 it was 1.07; with OR8D1 clone 1142, 1.04; with OR8D2 clone 1179, 1.12; in [4] it was 0.953. Further, the odorant receptor activation in the experiment on OR8G1 clone 1395 stood at 1.14; in the experiment on OR8G5 clone 1323, 0.833.

For `C=CCc1ccc(OC(C)=O)c(OC)c1` [eugenol acetate], the odorant receptor activation was 1.18 with OR7C2 clone 1292; 1.77 with OR7D2 clone 1405; 1.39 in the experiment on OR7D4 clone 1298; 1.61 with OR7E24 P242S clone 1314; 1.88 with OR7G1 clone 1295; 1.57 in experiment [1]. Besides, the odorant receptor activation in the experiment on OR7G2 clone 1475 worked out at 1.43; in the experiment with OR7G3 clone 1297, 1.82; with OR8A1 clone 1503, 2.36; with OR8B12 clone 1731, 1.64; in [2], 1.54; with OR8B4 E22G clone 1227, 1.5. Also, the odorant receptor activation in [3] is 1.88; with OR8B8 clone 1226 it was 1.39; in the experiment with OR8B8 clone 1504 it was 1.69; in the experiment with OR8D1 clone 1142, 2.38; in the experiment with OR8D2 clone 1179 it was 1.51; in experiment [4], 2.08. Besides, the results for the odorant receptor activation in the experiment on OR8G1 clone 1395 and in the experiment with OR8G5 clone 1323 were 1.4 and 1.56, respectively.

For `C=CCc1ccc(O)c(OC)c1` [eugenol], the odorant receptor activation in the experiment on OR7C2 clone 1292 was 1.08 and 1.04; in the experiment on OR7D2 clone 1405 it was 1.59 and 1.36; with OR7D4 clone 1298 it was 3.88 and 1.42; with OR7E24 P242S clone 1314, 2.63 and 1.26; in the experiment on OR7G1 clone 1295 it was 2.77 and 1.28; in experiment [1], 0.554 and 1.18. The odorant receptor activation is 1.25 and 0.929 and 0.943 in the experiment with OR7G2 clone 1475; 1.22 and 1.39 with OR7G3 clone 1297; 1.29 and 1 and 1.55 with OR8A1 clone 1503; 1.03 in the experiment on OR8B12 clone 1731; 0.778 in [2]; 1.75 and 1.32 with OR8B4 E22G clone 1227. Besides, the odorant receptor activation in experiment [3] was 1.51 and 1.4; with OR8B8 clone 1226, 1.52 and 1.23; in the experiment on OR8B8 clone 1504 it was 1.8 and 0.937 and 1.32; with OR8D1 clone 1142, 4.19 and 1.71; in the experiment with OR8D2 clone 1179 it was 2.08 and 1.22; in experiment [4], 1.75 and 1.68. Also, the odorant receptor activation in the experiment with OR8G1 clone 1395 is 1.55 and 1.37; in the experiment on OR8G5 clone 1323, 1.07 and 1.49.
